# Source: US5780243A, “Methods for the quantitative analysis of organic compounds” (Thaco Research, Ltd., priority 1996, dated 1998)
# Assay: Competitive ELISA of analyte from fortified liver tissue homogenates (precision and recovery)
# Method: The following method is a competitive enzyme linked immunosorbent assay (ELISA) for the assay of spectinomycin residues in various animal tissues and fluids and is applicable to total residue concentrations of approximately 0.1 ppm to in excess of 200 ppm in tissues.
# A five-gram aliquot of tissue was weighed into a 250-mL centrifuge bottle. After the addition of 50 mL PBST extraction buffer (0.1% Tween-20 in 0.01M phosphate buffered saline, pH 7.2), sample was homogenized using a Polytron homogenizer. The homogenized sample was centrifuged at 5,000 g-av for 30 minutes at 10° C. to sediment the solids. Supernatant was decanted into a 250-mL graduated cylinder. The homogenization and sedimentation process was repeated two more times, the supernatants were combined and the final volume adjusted to 200 mL with extraction buffer.
# To the combined supernatants, 1 mL of 4% sodium azide was added (final concentration 0.02%) to prevent microbial growth. The entire sample was further clarified by centrifugation and the supernatant was carefully decanted. A 4-mL aliquot of extract processed in this manner corresponds to 0.1 g of tissue.
# A plate plan was laid out for each microtiter plate prior to the start of the assay. The plate plan designates wells for standard curves, antigen-negative wells, primary antibody negative wells, a positive control well and samples with replicates.
# The coating antigen (100 μL) was added to each well according to the plate plan. Wells were selected as antigen-negative are coated with 0.01M PBS only. Plates were covered with sealing tape and lids, and sealed plates were incubated overnight at 4° C. A positive control will contain antibody instead of coating antigen.
# The plates coated with coating antigen were removed from the refrigerator and were washed in three consecutive addition/aspiration steps with washing buffer (0.01% Tween-20 in 0.01M PBS). A washer/aspirator designed for washing 96-well microtiter plates (Handiwash; Dynatech Laboratories, Inc. or equivalent) was utilized.
# After the third addition of washing buffer, wells were incubated with washing buffer at room temperature for approximately 3-5 minutes. The plate was then washed in two additional consecutive addition/aspiration steps. Excess washing buffer was aspirated from the wells and the plate was inverted and tapped dry on a paper towel or other absorbent surface.
# All wells of the microtiter plate had 300 μL of Blocking Solution (1% BSA in 0.01M PBS) added to each well. The plates were incubated at room temperature for one hour or overnight at 4° C.
# The washing procedure described above is repeated to remove excess BSA. The coated, blocked and washed plates were either used immediately or sealed with sealing tape and stored refrigerated (4° C.) for up to 3 days or frozen (-20° C.) for up to one month.
# Ninety six low protein binding micro-tubes were arranged in a tube rack with an 8×12 array to correspond to the microtiter plate plan. Duplicate external standard curves were established. Remaining tubes contained up to seven replicates of the diluted tissue extracts to which was added 190 μL of diluted sample and 10 μL of the protein A purified antibody (pAIgG). Positive control tubes contained 200 μL PBST. To the antibody negative controls, 10 μL of 0.01M PBS buffer were added instead of pAIgG. All tubes were vortexed after the antibody addition, incubated for approximately one hour and 100 μL transferred from each tube to the corresponding well in the microtiter plate according to the plate plan. Plates were incubated for one hour at 37° C. or overnight at 4° C.
# After incubation, plates were removed from the refrigerator and washed with washing buffer as described.
# To each well 100 μL of the 1:5000 dilution of secondary antibody, goat, anti-rabbit IgG conjugated to alkaline phosphatase (Pierce Chemical Co.) was added and the plates were covered with a lid and incubated for one hour. […]
smiles,measurement,setting,value
"CNC1C(O)C(NC)C2OC3(O)C(=O)CC(C)OC3OC2C1O (stereo not shown) [spectinomycin, decahydro-4a,7,9-trihydroxy-2-methyl-6,8-bis(methylamino)-4H-pyrano[2,3-b][1,4]benzodioxin-4-one]",Tissue Concentration,"fortified at 0.5, Day 1",0.47 ± 0.01 µg/mL
same,Tissue Concentration,"fortified at 0.5, Day 3",0.46 ± 0.01 µg/mL
same,Tissue Concentration,"fortified at 0.5, Day 13",0.53 ± 0.02 µg/mL
same,% Recovery,"fortified at 0.5, N 15",98%
same,Avg Conc.,"fortified at 0.5, N 15",0.49 µg/mL
same,Tissue Concentration,"fortified at 1, Day 1",0.95 ± 0.07 µg/mL
same,Tissue Concentration,"fortified at 1, Day 3",0.78 ± 0.09 µg/mL
same,Tissue Concentration,"fortified at 1, Day 13",0.92 ± 0.05 µg/mL
same,% Recovery,"fortified at 1, N 15",88%
same,Avg Conc.,"fortified at 1, N 15",0.88 µg/mL
same,Tissue Concentration,"fortified at 2, Day 1",1.44 ± 0.32 µg/mL
same,Tissue Concentration,"fortified at 2, Day 3",1.82 ± 0.09 µg/mL
same,Tissue Concentration,"fortified at 2, Day 13",1.83 ± 0.09 µg/mL
same,% Recovery,"fortified at 2, N 15",85%
same,Avg Conc.,"fortified at 2, N 15",1.7 µg/mL
same,Percent recovery (range),"liver homogenates fortified at 0.5, 1.0 and 2.0 ppm",85%-98
